Data on eight substances can be found in paper PMC9061857 (Nature Communications, 2022).

Where no end group is shown, it is not given here.

The nature of this data set: general procedure: Fmoc solid-phase peptide synthesis; 2-chlorotrityl chloride polystyrene resin; COMU/Oxyma/DIPEA. The conditions noted are these: whole synthesis.

As for IEFDAL, the “final HPLC purity” value came out at 99%.

With IEPDAG, the “final HPLC purity” value is 97%.

Take IEPDAL: the “final HPLC purity” value turned out to be 96%.

With IEPDRL, the “final HPLC purity” value is 99%.

For IEPDSG, the “final HPLC purity” value worked out at 94%.

As for IEPDSL, the “final HPLC purity” value is on record as 96%.

Consider IEPDWL, for which the “final HPLC purity” value turned out to be 93%.

Turning to IEPDWR, the “final HPLC purity” value was found to be 95%.
